Source: patent US12678418B2, “Compositions and methods for the treatment of threatened respiratory failure caused by coronavirus infection and disease” (ENCYT TECHNOLOGIES, INC., priority 2020, dated 2026)
For at least one compound, name, drawing or mass did not settle the structure. Ends that are not written are not given here.

Experiments:
[1] = system: SEAP gene inducible by NF-kB and AP-1 in RAW-Blue cells; test: SEAP reporter assay in RAW-Blue cells (Example 2); type: cell-based, mouse; conditions: FIG. 3A-3D; various concentrations
Method: RAW-Blue™ cells (mouse macrophage reporter cell line, Invivogen, San Diego CA) derived from RAW 264.7 macrophages were grown in a culture medium under the selection of Zeocin™. The cells stably express a secreted embryonic alkaline phosphatase (SEAP) gene inducible by NF-kB and AP-1 transcription factors. Upon stimulation, RAW-Blue™ cells activate NF-kB and AP-1 leading to the secretion of SEAP, which is detectable and measurable using QUANTI-Blue™, a SEAP detection medium (Invivogen). Supernatants (20 uL) after 24 hr reaction from treated RawBlue cells is added to QuantiBlue reagent (180 uL), and the readout of color reaction was done after 6 hrs. QUANTI-Blue™ is a colorimetric enzyme assay developed to determine the activity of any alkaline phosphatase present in a biological sample (supernatants) and was prepared according to manufacturer's instructions. RAW-Blue™ cells are resistant to Zeocin™ and G418.
A cell suspension of 550,000 RAW-blue cells/mL in fresh growth medium was prepared, and 180 μL of cell suspension (~100,000 cells) was added to each well of a Falcon flat-bottom 96-well plate (Becton Dickinson). […] The plate was incubated for 30 min to 3 h at 37° C. and the SEAP levels were determined using a spectrophotometer at 620-655 nm. […]

Neu1 = conditions: live macrophage cell lines and primary bone marrow macrophage cells from wild-type mice, not from Neu1-deficient mice; cited from earlier work

Compound	expression of SEAP (reflective of NF-kB expression) [1]	induction of Neu1 activity (Neu1)
RPPGFSPFR [Bradykinin, bradykinin]	triggered increased expression of SEAP	induce Neu1 activity
CSCC[C@H](NC(=O)[C@H](CC(C)C)NC(=O)[C@H](Cc1cnc[nH]1)NC(=O)CNC(=O)[C@@H](NC(=O)[C@H](C)NC(=O)[C@H](Cc1c[nH]c2ccccc12)NC(=O)[C@H](CCC(N)=O)NC(=O)[C@H](CC(N)=O)NC(=O)CNC(=O)[C@H](CC(C)C)NC(=O)[C@H](CCCN=C(N)N)NC(=O)[C@H](CCC(N)=O)NC(=O)[C@@H]1CCC(=O)N1)C(C)C)C(N)=O [bombesin]	–	induce Neu1 activity
